Measured values taken from PubChem BioAssay AID1347076 (National Center for Advancing Translational Sciences (NCATS), 2019).
The whole screen tested about 400,000 compounds, of which about 13,000 (3.2%) were called active. Inconclusive means that the source gave no clear call. Such entries were picked first, then a sample of the others. Calls follow the shape of the dose curve; as a rule, active = well fitted cell-killing curve with a large enough effect; inconclusive = small, poorly fitted or top-dose-only effect, or effect the other way; inactive = flat fitted curve, though single readings scatter. A potency beside an inconclusive call is a rough fit, not a confirmed value.

Assay: qHTS assay for MDR1-selective chemotherapeutics: Primary screen using the drug-selected MDR subline cells KB-V1; also: nearly all actives have a fitted effect of over 60% in size
Settings: KB-V1 MDR cells viability, CellTiter-Glo, 72 h; activity change, negative = cytotoxicity: at 46.1 µM (top of the series)
Summary of the method: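 Compound-treated KB-V1 multidrug-resistant cells, 72 h, 37 degrees C; viability by CellTiter-Glo. Fitted qHTS curves give the values.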
% is scaled to controls: 0 for no effect and ±100 for the full control effect; potency is read from the fitted curve at half-maximal effect.

Row | SMILES | Potency | activity change, negative = cytotoxicity
1 | Cc1cc(C(=O)CSc2nnc(N)s2)c(C)n1CCc1ccc(F)cc1 | inconclusive: 14.6 µM [cytotoxic, partial curve] | 
2 | COc1ccc(CCNC(=O)CNC(=O)c2nn(-c3ccc(OC)c(OC)c3)c(=O)c3ccccc23)cc1OC |  | inactive: 18.3%
3 | COc1ccccc1CNC(=O)CC(c1ccc(OC)c(OC)c1)N1Cc2ccccc2C1=O (stereo unspecified) | inconclusive: 20.6 µM [cytotoxic, partial curve, poor fit] | 
4 | C#CCN(Cc1ccco1)C(=O)c1ccc(OC2CCN(Cc3ccccn3)CC2)cc1 | active: 16.4 µM | 
5 | COc1cccc2cc(-c3nnc(Nc4c(F)cccc4F)s3)c(=O)oc12 |  | inactive: 23%
6 | CCCN(C(=O)CCc1nc(-c2ccc(OC)cc2)no1)c1ccccc1F |  | inactive: -11.2%
7 | COc1ccc(OC)c(COC(=O)c2cc([N+](=O)[O-])ccc2N2CCOCC2)c1 | inconclusive: 29.1 µM [cytotoxic, single point] | 
8 | Cc1c(NS(=O)(=O)c2cc(C(=O)N(C)Cc3ccccc3)ccc2Cl)c(=O)n(-c2ccccc2)n1C |  | inactive: 3.79%
9 | CCOc1cc(S(=O)(=O)N2CCN(S(=O)(=O)CC)CC2)c(OCC)cc1-n1cnnn1 |  | inactive: 0%
10 | CCn1c(SCC(=O)Nc2cccc(C)c2)nc2nc3c(cc2c1=O)COC(C)(C)C3 | inconclusive: 29.1 µM [cytotoxic, single point] | 
11 | CCN(CC)S(=O)(=O)c1cc(C)ccc1NC(=S)Nc1cccnc1 |  | inactive: -15.4%
12 | COc1ccc(-n2c(C)cc(C(=O)Cn3nc(C(=O)O)c4ccccc4c3=O)c2C)cc1 | active: 14.6 µM | 
13 | C=CCn1c2ccccc2c2nnc(SCC(=O)NC(C(=O)OC)C(C)C)nc21 (stereo unspecified) | active: 8.2 µM | 
14 | CCC(C)NC(=O)C1(O)c2ccccc2NC(=O)N1c1ccc(C)c(C)c1 (stereo unspecified) | inconclusive: 18.4 µM [rising, single point] | 
15 | COc1cc(OC)c2c(-c3cccc(-c4ccc(OC)c(F)c4)c3)cc(=O)oc2c1 |  | inactive: -29.1%
16 | NS(=O)(=O)c1ccc(N/N=C/c2ccc[nH]2)c([N+](=O)[O-])c1 | inconclusive: 23.1 µM [cytotoxic, single point] | 
17 | COc1ccc2c(c1OC)OCC2C (stereo unspecified) | active: 14.6 µM | 
18 | C/C=C\C=C/C(=O)Nc1cccc(C2=NOC3(C2)C[C@H](C(N)=O)N(C(=O)Cc2ccc([N+](=O)[O-])cc2)C3)c1 (stereo partly specified) | inconclusive: 29.1 µM [rising, single point] | 
19 | Cc1cc(SCC(=O)c2ccc3c(c2)OCO3)nc2ccccc12 |  | inactive: 1.97%
20 | CCOC(=O)c1cnc(SC2CC(=O)N(c3ccc(C)cc3)C2=O)nc1N (stereo unspecified) |  | inconclusive: -37.5%
21 | COc1ccccc1NC(=O)CSc1n[nH]c(Cc2ccccc2)n1 | inconclusive: 20.6 µM [cytotoxic, single point] | 
22 | Cc1cccc(NC(=O)c2sc3nc(N4CCOCC4)c4c(c3c2N)CC(C)(C)OC4)c1 | inconclusive: 29.1 µM [rising, single point] | 
23 | Cc1ccccc1OCC(=O)OCC(=O)NCc1ccc2c(c1)OCO2 | inconclusive: 0.651 µM [rising, full curve, poor fit] | 
24 | COc1ccc(NC(=O)Cn2ncc3c2-c2ccccc2OC3)cc1Cl | inconclusive: 32.6 µM [cytotoxic, single point] | 

Row | SMILES | Potency | activity change, negative = cytotoxicity
25 | COc1ccc(-n2nnnc2SCC(=O)c2cc3ccccc3o2)cc1 | inconclusive: 20.6 µM [cytotoxic, partial curve, poor fit] | 
26 | COc1cc2c(cc1OC)C1=C(C#N)CCC(=O)N1CC2 | active: 4.61 µM | 
27 | COCCCNc1ccn2nc(-c3ccc(OCc4ccccc4)cc3)cc2n1 |  | inactive: -5.01%
28 | CN=C(C)c1c(O)c2ccccc2oc1=O |  | inactive: 9.12%
29 | CCN1C(=O)/C(=C/C=C2\C=CN(CC)c3ccccc32)SC1=S | inconclusive: 5.17 µM [cytotoxic, partial curve] | 
30 | CCN(CC)c1sc(S(=O)(=O)c2ccccc2)nc1S(=O)(=O)c1ccc(C)cc1 | inconclusive: 10.3 µM [cytotoxic, partial curve, poor fit] | 
31 | O=C(Nc1ccccc1N1CCOCC1)c1cccc2ccccc12 | inconclusive: 18.4 µM [cytotoxic, single point] | 
32 | Cc1cccc2sc(NC(=O)c3ccc(OCC4CCCO4)cc3)nc12 (stereo unspecified) | inconclusive: 3.66 µM [cytotoxic, full curve] | 
33 | CCc1nnc(NC(=O)c2ccc(NS(=O)(=O)c3ccccc3)cc2)s1 | inconclusive: 18.4 µM [cytotoxic, single point] | 
34 | Cc1ccc(C)c2sc(N3CCN(C(=O)C(C)(C)C)CC3)nc12 |  | inactive: -7.69%
35 | O=C(Nc1cccc(C(F)(F)F)c1)c1csc([C@@H]2O[C@H](CO)[C@@H](O)[C@H]2O)n1 |  | inactive: 2.77%
36 | Cc1ccc(CSc2n[nH]c(N)n2)cc1 | inconclusive: 5.8 µM [rising, full curve, poor fit] | 
37 | COc1ccc(-c2noc(Cc3cccs3)n2)cc1 | inconclusive: 29.1 µM [rising, single point] | 
38 | O=C(NNC(=O)c1ccccc1O)c1cccc(Br)c1 | inconclusive: 3.66 µM [cytotoxic, partial curve, poor fit] | 
39 | CCOC(=O)N1CCN(C(=O)CSCC(=O)Nc2nc(-c3ccccc3)cs2)CC1 | active: 16.4 µM | 
40 | CCN1CCN(c2oc(-c3ccccc3)nc2S(=O)(=O)c2ccc(C)cc2)CC1 | inconclusive: 0.366 µM [cytotoxic, full curve, poor fit] | 
41 | CC(Sc1ccc(S(=O)(=O)N2CCN(C)CC2)cn1)C(=O)Nc1cccc(Cl)c1Cl (stereo unspecified) |  | inactive: 0%
42 | CC(C)OC(=O)CN1CCN(S(=O)(=O)c2cc(Cl)ccc2Cl)CC1 | inconclusive: 16.4 µM [cytotoxic, partial curve] | 
43 | CCOC(=O)C1=NNC(=O)C1 | inconclusive: 20.6 µM [rising, single point] | 
44 | CN(Cc1ccccc1)C(=O)c1cccc(NC(=O)Cc2ccc(NC(=O)C3CCN(C(=O)c4ccccc4)CC3)cc2)c1 |  | inactive: 11.8%
45 | COCCCNC(=S)N1CCN(c2nc3ccccc3s2)CC1 | active: 14.6 µM | 
46 | CCN(CC)C(=O)c1cc2cc(Br)ccc2oc1=O |  | inactive: -4.66%
47 | CC(=O)c1ccc(OCCNS(=O)(=O)c2ccc(-n3cnnn3)cc2)cc1 | inconclusive: 11.6 µM [rising, partial curve] | 
48 | COc1ccc(CN(CC(=O)NCc2ccc(F)cc2)C(=O)CCC(=O)Nc2cc(C)ccn2)cc1 |  | inactive: -8.3%

3 entries out of the list, ordered by heavy-atom count, descending.
Row | SMILES | Potency | activity change, negative = cytotoxicity
47 | CC(=O)c1ccc(OCCNS(=O)(=O)c2ccc(-n3cnnn3)cc2)cc1 | inconclusive: 11.6 µM [rising, partial curve] | 
38 | O=C(NNC(=O)c1ccccc1O)c1cccc(Br)c1 | inconclusive: 3.66 µM [cytotoxic, partial curve, poor fit] | 
37 | COc1ccc(-c2noc(Cc3cccs3)n2)cc1 | inconclusive: 29.1 µM [rising, single point] | 

(listing goes on)

Row | SMILES | Potency | activity change, negative = cytotoxicity
49 | CC(NS(=O)(=O)c1ccc(Cl)cc1)C(=O)Nc1ccc2c(c1)OCCO2 (stereo unspecified) | inconclusive: 18.4 µM [cytotoxic, partial curve, poor fit] | 
50 | CCc1ccc(NS(=O)(=O)c2ccc3[nH]c(=O)[nH]c3c2)cc1 | inconclusive: 2.91 µM [rising, full curve] | 
51 | COc1ccccc1C(=O)Nc1nnc([C@H]2C[C@H](O)[C@@H](CO)O2)s1 |  | inactive: -0.645%
52 | CCCN(CC(=O)Nc1ccccc1C)C(=O)C1CCN(c2ncnc3sc(C)c(C)c23)CC1 | active: 20.6 µM | 
53 | O=C(Cn1ccc([N+](=O)[O-])n1)NCc1cccnc1 | inconclusive: 32.6 µM [rising, partial curve, poor fit] | 
54 | COc1ccc(COCC(O)CN2CCN(S(=O)(=O)c3c(F)cccc3F)CC2)cc1OC (stereo unspecified) | active: 13 µM | 
55 | COc1ccccc1CO/N=C/NC(=O)c1c(OC)ccnc1Oc1ccc(F)cc1 | inconclusive: 9.2 µM [cytotoxic, partial curve, poor fit] | 
56 | COc1cc(Cl)ccc1NC(=O)COc1ccccc1C(=O)N1CCN(c2ccc(O)cc2)CC1 | inconclusive: 16.4 µM [cytotoxic, partial curve] | 
57 | CC(=O)NC(c1ccccc1)c1cc(Cl)c2cccnc2c1O (stereo unspecified) | inconclusive: 32.6 µM [cytotoxic, single point] | 
58 | COc1ccc(C(=O)Nc2ccc(Cl)cc2C(=O)NCCN2CCOCC2)cc1 | inconclusive: 11.2 µM [cytotoxic, partial curve] | 
59 | COc1ccccc1C(C[N+](=O)[O-])c1c[nH]c2ccccc12 (stereo unspecified) | inconclusive: 29.1 µM [cytotoxic, single point] | 
60 | COc1cccc(C(C(=O)NC2CCCC2)N2CCN(c3cc(C)ccc3C)CC2)c1OC (stereo unspecified) | active: 16.4 µM | 
61 | Cc1cc(C)c2nc(N(Cc3cccnc3)C(=O)c3cccs3)sc2c1 | inconclusive: 16.4 µM [cytotoxic, partial curve, poor fit] | 
62 | CCCCNS(=O)(=O)c1cccc(NC(=O)[C@@H]2O[C@H](CO)[C@@H](O)[C@H]2O)c1 |  | inactive: -3.25%
63 | CN1CCN(c2ccc(S(=O)(=O)N3CCCCC3)cc2NC(=O)COc2cccc(Cl)c2)CC1 |  | inactive: -20.1%
64 | O=C(Oc1ccc(C(=S)N2CCOCC2)cc1)c1ccccc1F |  | inactive: 10.1%
65 | Cn1c(=N)n(CC(O)c2cccc3ccccc23)c2ccccc21 (stereo unspecified) | inconclusive: 18.4 µM [cytotoxic, single point] | 
66 | Cn1ccsc1=NC(=O)c1cc(S(=O)(=O)N2CCOCC2)ccc1Cl |  | inconclusive: -5.35%
67 | S=C(NNC(=S)NC1CC2CCC1C2)NC1CC2C=CC1C2 (stereo unspecified) | inconclusive: 29.1 µM [cytotoxic, single point] | 
68 | CC(C)CCN1NC2(CCCC(C)C2)NC1=S (stereo unspecified) |  | inactive: -17.2%
69 | OCCC1CN(Cc2cnc(-c3ccccc3)s2)CCN1Cc1ccccc1 (stereo unspecified) | inconclusive: 11.6 µM [cytotoxic, partial curve] | 
70 | O=c1ccc(/C=C/c2ccccc2)nn1Cc1ccccc1Cl | inconclusive: 18.4 µM [cytotoxic, partial curve] | 
71 | CC(=O)N1CCCc2cc(S(=O)(=O)N3CCCC(C(=O)Nc4cc(C)ccc4C)C3)ccc21 (stereo unspecified) | inconclusive: 1.64 µM [cytotoxic, partial curve] | 

Single values from the entries so far:
`Cn1ccsc1=NC(=O)c1cc(S(=O)(=O)N2CCOCC2)ccc1Cl` – activity change, negative = cytotoxicity: inconclusive: -5.35%
`COc1cc(Cl)ccc1NC(=O)COc1ccccc1C(=O)N1CCN(c2ccc(O)cc2)CC1` – Potency: inconclusive: 16.4 µM [cytotoxic, partial curve]
